Measurements from publication PMC12607013.
Substitutions are numbered along the chain they refer to. No constants are given. Whether binding was seen depends on the method and setting. Binding seen in cells or lysates may run through a third protein. Some results given as binding are weak or reduced against the parent protein; the word gives no strength. For some assays here: Tags and fused reporters may be left off the sequences shown.

T1: CYLD (UniProt Q9NQC7)
T1 sequence: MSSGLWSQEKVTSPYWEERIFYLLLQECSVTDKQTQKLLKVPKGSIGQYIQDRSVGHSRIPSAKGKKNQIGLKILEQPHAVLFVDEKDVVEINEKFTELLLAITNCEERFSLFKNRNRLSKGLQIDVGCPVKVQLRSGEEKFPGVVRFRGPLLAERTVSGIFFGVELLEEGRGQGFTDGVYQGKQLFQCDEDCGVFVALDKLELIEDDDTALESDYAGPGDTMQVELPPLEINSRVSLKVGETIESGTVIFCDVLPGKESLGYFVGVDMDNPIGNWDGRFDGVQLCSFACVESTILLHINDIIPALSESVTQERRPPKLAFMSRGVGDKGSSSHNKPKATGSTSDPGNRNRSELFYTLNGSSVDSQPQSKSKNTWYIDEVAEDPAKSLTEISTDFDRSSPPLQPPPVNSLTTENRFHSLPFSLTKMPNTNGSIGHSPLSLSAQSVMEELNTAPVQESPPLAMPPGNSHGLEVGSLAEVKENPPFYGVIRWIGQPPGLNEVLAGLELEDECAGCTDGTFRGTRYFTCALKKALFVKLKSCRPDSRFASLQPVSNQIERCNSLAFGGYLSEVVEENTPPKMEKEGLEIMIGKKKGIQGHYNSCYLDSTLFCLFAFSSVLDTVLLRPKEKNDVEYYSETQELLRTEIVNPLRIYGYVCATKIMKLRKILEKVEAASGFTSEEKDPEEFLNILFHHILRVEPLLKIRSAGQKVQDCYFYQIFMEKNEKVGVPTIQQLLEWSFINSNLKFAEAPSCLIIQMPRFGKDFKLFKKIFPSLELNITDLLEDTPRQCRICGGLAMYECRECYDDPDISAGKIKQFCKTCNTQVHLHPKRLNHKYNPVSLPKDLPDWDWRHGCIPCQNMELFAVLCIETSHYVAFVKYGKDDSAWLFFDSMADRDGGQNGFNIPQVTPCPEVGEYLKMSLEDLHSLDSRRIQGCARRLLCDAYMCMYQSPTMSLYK

T2: FLAG-tagged full-length OTUD4 (ovarian tumor family deubiquitinase 4), WT (human) (UniProt Q01804)
T2 sequence: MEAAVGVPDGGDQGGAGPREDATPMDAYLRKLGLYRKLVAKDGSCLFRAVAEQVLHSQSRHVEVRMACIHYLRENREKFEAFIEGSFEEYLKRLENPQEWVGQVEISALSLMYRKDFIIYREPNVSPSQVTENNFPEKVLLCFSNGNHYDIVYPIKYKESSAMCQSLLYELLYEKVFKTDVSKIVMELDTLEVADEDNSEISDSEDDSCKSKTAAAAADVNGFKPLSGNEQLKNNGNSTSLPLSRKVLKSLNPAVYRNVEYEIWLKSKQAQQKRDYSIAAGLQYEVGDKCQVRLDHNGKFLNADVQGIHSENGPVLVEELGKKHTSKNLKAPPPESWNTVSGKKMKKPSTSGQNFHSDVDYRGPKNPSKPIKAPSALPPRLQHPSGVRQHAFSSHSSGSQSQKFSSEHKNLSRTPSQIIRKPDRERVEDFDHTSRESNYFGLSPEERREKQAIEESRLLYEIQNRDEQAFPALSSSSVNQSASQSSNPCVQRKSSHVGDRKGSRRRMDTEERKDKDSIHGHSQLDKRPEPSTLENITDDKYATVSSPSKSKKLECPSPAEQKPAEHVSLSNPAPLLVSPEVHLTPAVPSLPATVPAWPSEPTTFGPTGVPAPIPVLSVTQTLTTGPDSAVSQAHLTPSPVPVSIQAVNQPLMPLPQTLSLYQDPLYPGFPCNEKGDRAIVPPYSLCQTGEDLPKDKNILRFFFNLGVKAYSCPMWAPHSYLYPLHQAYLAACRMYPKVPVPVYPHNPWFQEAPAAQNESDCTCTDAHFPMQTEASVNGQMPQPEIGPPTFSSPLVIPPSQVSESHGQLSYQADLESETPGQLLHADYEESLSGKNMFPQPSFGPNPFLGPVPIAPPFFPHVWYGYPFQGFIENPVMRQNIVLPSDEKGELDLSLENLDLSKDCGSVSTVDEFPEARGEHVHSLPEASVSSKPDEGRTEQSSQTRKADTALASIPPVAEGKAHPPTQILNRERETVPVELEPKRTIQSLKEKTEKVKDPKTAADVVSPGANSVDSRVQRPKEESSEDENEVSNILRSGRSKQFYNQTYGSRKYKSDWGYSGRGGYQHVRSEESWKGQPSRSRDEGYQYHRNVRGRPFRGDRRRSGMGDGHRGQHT

T3: FLAG-tagged full-length OTUD4 H148Y (tumor-associated variant) (human) (UniProt Q01804)
T3 sequence: T2 sequence with H148Y

T4: HA-TAK1 (UniProt O43318)
T4 sequence: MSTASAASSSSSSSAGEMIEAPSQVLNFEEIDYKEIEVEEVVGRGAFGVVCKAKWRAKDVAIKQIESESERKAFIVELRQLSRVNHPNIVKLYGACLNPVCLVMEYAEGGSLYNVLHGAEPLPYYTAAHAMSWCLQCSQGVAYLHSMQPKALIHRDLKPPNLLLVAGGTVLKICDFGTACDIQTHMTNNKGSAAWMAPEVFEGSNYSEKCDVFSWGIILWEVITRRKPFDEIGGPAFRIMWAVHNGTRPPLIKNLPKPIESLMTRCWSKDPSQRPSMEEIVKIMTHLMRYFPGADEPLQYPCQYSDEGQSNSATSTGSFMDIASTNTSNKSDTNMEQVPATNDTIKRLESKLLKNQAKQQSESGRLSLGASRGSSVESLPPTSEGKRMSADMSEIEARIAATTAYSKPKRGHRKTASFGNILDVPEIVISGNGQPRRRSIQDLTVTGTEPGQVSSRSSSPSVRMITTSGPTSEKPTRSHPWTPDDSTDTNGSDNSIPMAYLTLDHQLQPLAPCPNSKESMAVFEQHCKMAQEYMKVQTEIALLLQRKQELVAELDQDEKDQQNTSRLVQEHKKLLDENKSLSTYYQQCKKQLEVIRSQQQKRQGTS

B1: endogenous TAK1 (transforming growth factor β–activated kinase 1) in HEK293T cells (protein, UniProt O43318 1-606)
chain: T4 sequence
B2: endogenous TAB1 in HEK293T cells (protein, UniProt Q15750 1-504)
chain: MAAQRRSLLQSEQQPSWTDDLPLCHLSGVGSASNRSYSADGKGTESHPPEDSWLKFRSENNCFLYGVFNGYDGNRVTNFVAQRLSAELLLGQLNAEHAEADVRRVLLQAFDVVERSFLESIDDALAEKASLQSQLPEGVPQHQLPPQYQKILERLKTLEREISGGAMAVVAVLLNNKLYVANVGTNRALLCKSTVDGLQVTQLNVDHTTENEDELFRLSQLGLDAGKIKQVGIICGQESTRRIGDYKVKYGYTDIDLLSAAKSKPIIAEPEIHGAQPLDGVTGFLVLMSEGLYKALEAAHGPGQANQEIAAMIDTEFAKQTSLDAVAQAVVDRVKRIHSDTFASGGERARFCPRHEDMTLLVRNFGYPLGEMSQPTPSPAPAAGGRVYPVSVPYSSAQSTSKTSVTLSLVMPSQGQMVNGAHSASTLDEATPTLTNQSPTLTLQSTNTHTQSSSSSSDGGLFRSRPAHSLPPGEDGRVEPYVDFAEFYRLWSVDHGEQSVVTAP
B3: endogenous TAB3 in HEK293T cells (protein, UniProt Q8N5C8 1-712)
chain: MAQSSPQLDIQVLHDLRQRFPEIPEGVVSQCMLQNNNNLEACCRALSQESSKYLYMEYHSPDDNRMNRNRLLHINLGIHSPSSYHPGDGAQLNGGRTLVHSSSDGHIDPQHAAGKQLICLVQEPHSAPAVVAATPNYNPFFMNEQNRSAATPPSQPPQQPSSMQTGMNPSAMQGPSPPPPPPSYMHIPRYSTNPITVTVSQNLPSGQTVPRALQILPQIPSNLYGSPGSIYIRQTSQSSSGRQTPQSTPWQSSPQGPVPHYSQRPLPVYPHQQNYQPSQYSPKQQQIPQSAYHSPPPSQCPSPFSSPQHQVQPSQLGHIFMPPSPSTTPPHPYQQGPPSYQKQGSHSVAYLPYTASSLSKGSMKKIEITVEPSQRPGTAINRSPSPISNQPSPRNQHSLYTATTPPSSSPSRGISSQPKPPFSVNPVYITYTQPTGPSCTPSPSPRVIPNPTTVFKITVGRATTENLLNLVDQEERSAAPEPIQPISVIPGSGGEKGSHKYQRSSSSGSDDYAYTQALLLHQRARMERLAKQLKLEKEELERLKSEVNGMEHDLMQRRLRRVSCTTAIPTPEEMTRLRSMNRQLQINVDCTLKEVDLLQSRGNFDPKAMNNFYDNIEPGPVVPPKPSKKDSSDPCTIERKARRISVTSKVQADIHDTQAAAADEHRTGSTQSPRTQPRDEDYEGAPWNCDSCTFLNHPALNRCEQCEMPRYT

Tests used:
Test in all cases: co-IP; HEK293T cells transfected with the indicated plasmids, 48 to 72 h; clarified lysates incubated overnight at 4 °C with anti-FLAG M2-agarose or anti-HA-agarose beads; Western blot
[1] = target: T1, CYLD
[2] = target: T2, FLAG-tagged full-length OTUD4 (ovarian tumor family deubiquitinase 4), WT (human)
[3] = target: T3, FLAG-tagged full-length OTUD4 H148Y (tumor-associated variant) (human)
[4] = target: T4, HA-TAK1

| Binder | binding [1] | binding [2] | binding [3] | binding [4] |
| --- | --- | --- | --- | --- |
| B1 | binds | binds |  |  |
| B2 |  | binds | binds | binds |
| B3 |  | binds | binds | binds |
